Data taken from PubChem BioAssay AID540256 (National Center for Advancing Translational Sciences (NCATS), 2011).
The campaign covered roughly 300,000 compounds. About 3,700 (1.2%) were called active. The shares of active, inactive and inconclusive entries below differ from those in the screen. Calls follow the shape of the full dose curve; tested in HEK293 cells. A potency beside an inconclusive call is a rough fit, not a confirmed value.

Assay: qHTS for Inhibitors of binding or entry into cells for Lassa Virus; also: nearly all actives have a fitted effect of over 50% in size
Details: Lassa virus pseudotype entry inhibition, cell reporter; series mostly up to 37.9 µM
Potency is read from the fitted curve at half-maximal effect.

Row | Structure (SMILES) | Potency
1 | O=C(NCCc1ccc(Cl)cc1)c1cnc2sc(N3CCCCC3)nn2c1=O | inconclusive: 1.26 µM [activator, full curve, poor fit]
2 | CN(C)CCNC(=O)c1cccc2nc3c(ccc4ccccc43)nc12 | inconclusive: 14.1 µM [inhibitor, partial curve, poor fit]
3 | CC(C)(C)c1ccc(-n2ncc3c2CCCC3NC(=O)CN2CCCC2=O)cc1 (stereo not drawn) | inconclusive: 11.2 µM [inhibitor, single point]
4 | CC(C)N=C1NN=C(c2ccc(F)cc2)CS1 | inconclusive: 15.8 µM [inhibitor, single point]
5 | Cn1c(NCCO)nc2c1c(=O)n(Cc1cccc(F)c1)c(=O)n2C | inconclusive: 2.82 µM [activator, single point]
6 | C/C(=N/NC(=O)CNC(=O)COc1ccccc1)c1ccc(Cl)cc1 | inconclusive: 7.08 µM [activator, partial curve, poor fit]
7 | CCOC(=O)c1cc(C#N)c(N2CCCCC2)nc1-c1ccccc1 | inconclusive: 31.6 µM [inhibitor, single point]
8 | COc1cccc(/C=C/c2nc(C#N)c(NCCc3ccc(OC)c(OC)c3)o2)c1 | inactive
9 | COc1ccc(NC2CCCN(C(=O)CCC(=O)c3ccc(F)cc3)C2)cc1 (stereo not drawn) | inconclusive: 22.4 µM [inhibitor, single point]
10 | CCCCN(CC)C(=O)Cc1c(C(=O)O)[nH]c2ccc(Cl)cc12 | inactive
11 | CCc1ccc(-c2[nH]c3c(c2-c2sc(C)c(C(=O)OC)c2O)c(=O)[nH]c(=O)n3C)cc1 | inconclusive: 10 µM [inhibitor, partial curve, poor fit]
12 | CC(C)C(=O)Nc1cccc(S(=O)(=O)c2cccc(NC(=O)C(C)C)c2)c1 | active: 0.631 µM
13 | N#Cc1c(NC(=O)CSc2ncnc3c2cnn3-c2ccccc2Cl)sc2c1CCCC2 | inconclusive: 22.4 µM [inhibitor, single point]
14 | O=C(NCc1ccccc1)c1cc2nc(C3CC3)cc(C(F)(F)F)n2n1 | inactive
15 | C/C(=N\NC(=O)c1ccc2c(c1)OCO2)c1ccco1 | inconclusive: 12.6 µM [inhibitor, partial curve, poor fit]
16 | O=C(NCCc1c[nH]c2ccccc12)C(=O)NCC(c1cccnc1)N1CCN(c2ccccc2)CC1 (stereo not drawn) | inconclusive: 23.1 µM [inhibitor, partial curve, poor fit]
17 | O=C1CN(S(=O)(=O)c2ccccc2)CCN1 | inactive
18 | CCOC(=O)C1(Cc2cccc(OC)c2)CCCN(C(=O)CCSC)C1 (stereo not drawn) | inconclusive: 35.5 µM [inhibitor, single point]

A portion from further up, for reference:
Row | Structure (SMILES) | Potency
6 | C/C(=N/NC(=O)CNC(=O)COc1ccccc1)c1ccc(Cl)cc1 | inconclusive: 7.08 µM [activator, partial curve, poor fit]
7 | CCOC(=O)c1cc(C#N)c(N2CCCCC2)nc1-c1ccccc1 | inconclusive: 31.6 µM [inhibitor, single point]
8 | COc1cccc(/C=C/c2nc(C#N)c(NCCc3ccc(OC)c(OC)c3)o2)c1 | inactive
